Laboratory results from article PMC7819943, “Rice protein-binding microarrays: a tool to detect cis-acting elements near promoter regions in rice”.
The list shows a part of the results.

The sequences below were run against T1, OsSMF1 (Oryza sativa, UniProt Q6ZLB0 1-436) (assay: protein-binding microarray (RPBM); PBS, 2% BSA, 51.3 ng/ul salmon testes DNA, 50 uM zinc acetate, 200 nM TF, 25 C, 1 h; high values mean tight binding). Settings: protein: recombinant; tags: N-terminal polyhistidine and DsRed monomer fusion (pET32a); chain copies: 2; label: CyDye5-dUTP incorporated in the synthesized complementary strand; 3' TTTTT single-stranded linker to array surface; dsDNA, one strand shown.
T1 sequence: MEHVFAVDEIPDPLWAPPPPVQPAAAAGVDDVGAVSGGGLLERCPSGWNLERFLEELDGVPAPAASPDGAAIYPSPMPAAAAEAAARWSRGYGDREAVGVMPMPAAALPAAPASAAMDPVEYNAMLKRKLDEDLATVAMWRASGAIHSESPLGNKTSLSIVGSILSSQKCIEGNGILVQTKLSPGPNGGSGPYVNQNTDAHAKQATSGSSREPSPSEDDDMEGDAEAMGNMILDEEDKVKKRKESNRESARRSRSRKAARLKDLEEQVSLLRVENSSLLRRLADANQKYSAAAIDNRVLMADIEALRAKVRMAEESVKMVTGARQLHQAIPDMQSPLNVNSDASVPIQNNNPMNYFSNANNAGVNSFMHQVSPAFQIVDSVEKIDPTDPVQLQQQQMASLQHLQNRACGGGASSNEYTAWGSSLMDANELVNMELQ
In short: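 A custom Agilent array was converted to double-stranded form by primer extension with Cy5-dUTP and blocked with 2% BSA. Protein at 200 nM in PBS with 2% BSA, salmon testes DNA and 50 µM zinc acetate was applied for 1 h at 25 °C, followed by washing. The proteins were polyhistidine–DsRed N-terminal fusions of transcription factors, expressed in E. coli BL21-CodonPlus and Ni–NTA-purified. The binding signal is per-feature fluorescence intensity (arbitrary units) from an Axon 4000B scanner.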
For “ATATACTTGGATTCGTAACATACGGAAATACCGCATACCACGGAGTCACCTAGTGCAG”, the binding signal was 13700 fluorescence intensity (a.u.). In the case of “GTGTAGTTACCTTCTCGTAGGTGTCATCGAGGATGATGGCCGGAGTCACCTAGTGCAG”, the binding signal is reported as 3910 fluorescence intensity (a.u.). “TGCCGTTGCTTACACGCGCACCAATTGACACCTACAGTAACGGAGTCACCTAGTGCAG” was tested, and the binding signal was 3940 fluorescence intensity (a.u.). With “CTTGCTGTCGCGGCCATAGATACGCGTACTGACGGAAGAACGGAGTCACCTAGTGCAG” the binding signal was 3260 fluorescence intensity (a.u.). With “TGAGCCGGAACGGTAATGTAGCTGACGTGCAGGTTGTTTTCGGAGTCACCTAGTGCAG” the binding signal was 6940 fluorescence intensity (a.u.). “CCTCTAGCTCTTGCATCGTGTCGTTTCTTTAGCTGCGTGTCGGAGTCACCTAGTGCAG” was tested, and the binding signal was 3970 fluorescence intensity (a.u.). “TTGGAAGCCACACGCACGTCGGCTGCTGTATAGGGCCCATCGGAGTCACCTAGTGCAG” was tested, and the binding signal was 3590 fluorescence intensity (a.u.). “TGGTGGTGACCCATTACCAAGAAACACACACCGTCGTCCACGGAGTCACCTAGTGCAG” was tested, and the binding signal was 3980 fluorescence intensity (a.u.). In the case of “AAAAGGAGAGATATCATTAAGAAGTAAAGTGGCCCATGTTCGGAGTCACCTAGTGCAG”, the binding signal is reported as 30100 fluorescence intensity (a.u.). In the case of “TCCCCTTCCTGTCCACACAAACCTGCCTCTTCCGACCCATCGGAGTCACCTAGTGCAG”, the binding signal is reported as 3380 fluorescence intensity (a.u.). For “TTCATTGGAGAGTGTAAGTGTTCAGGGTCAACGGAAAGAGCGGAGTCACCTAGTGCAG”, the binding signal was 3710 fluorescence intensity (a.u.). In the case of “GTGGTGAAGTTGTCGACGTGGCACACCATCGAGCCGCTCACGGAGTCACCTAGTGCAG”, the binding signal is reported as 15200 fluorescence intensity (a.u.). In the case of “CATGCCGTCCCGTCGGCGCCGGTGACGTCGCGCGCCGACTCGGAGTCACCTAGTGCAG”, the binding signal is reported as 3270 fluorescence intensity (a.u.). With “ATGCCAATTGCAAAGAGAGTGAGGCCTCACGGGGAGCGTGCGGAGTCACCTAGTGCAG” the binding signal was 35700 fluorescence intensity (a.u.). For “AATCACTGGTATTACGGCTACCTCATGTTTTGAATCAGCTCGGAGTCACCTAGTGCAG”, the binding signal was 3200 fluorescence intensity (a.u.). “TGACATGTAGCATTTGTACAGGTGGCATGCTCTGTGACTTCGGAGTCACCTAGTGCAG” was tested, and the binding signal was 6800 fluorescence intensity (a.u.). With “GCGGCTTCTCGCCGGCGGCGACCACCACCCGTCACCCACCCGGAGTCACCTAGTGCAG” the binding signal was 3380 fluorescence intensity (a.u.). “TCTCTACGGGTAGCTGTCATCACTTGCACGGTGGTGTCCCCGGAGTCACCTAGTGCAG” was tested, and the binding signal was 3440 fluorescence intensity (a.u.). “ATAACAACGAATTGAATGACGAGTAATCGAACGTGGCATTCGGAGTCACCTAGTGCAG” was tested, and the binding signal was 5460 fluorescence intensity (a.u.). With “CGGTTCCGCAGCTCCAAAACGCGGGACCGTCGCGGTCCCGCGGAGTCACCTAGTGCAG” the binding signal was 3770 fluorescence intensity (a.u.). For “TATGTAACAGCTGAGTCAGCATCCATATGTCAGGATGCCGCGGAGTCACCTAGTGCAG”, the binding signal was 14900 fluorescence intensity (a.u.). With “AATGTAGACATATATGTGTATAGATTCATTAATATATATACGGAGTCACCTAGTGCAG” the binding signal was 17400 fluorescence intensity (a.u.). In the case of “CAAGACGGATTTATTAAGCCTAATTAATCTATCATTAGCGCGGAGTCACCTAGTGCAG”, the binding signal is reported as 4110 fluorescence intensity (a.u.). “TTTCTCGCCGGCCGTCGTGTTGCGTCGCCAGTCGATCGCCCGGAGTCACCTAGTGCAG” was tested, and the binding signal was 3570 fluorescence intensity (a.u.). With “TTTGATGTGACATGATGTAAAGTTTTGGGATGGGATCTAACGGAGTCACCTAGTGCAG” the binding signal was 29100 fluorescence intensity (a.u.). In the case of “TCACTCGCCGGTGCGATGACACACAGCCACAGAGATGGAACGGAGTCACCTAGTGCAG”, the binding signal is reported as 4490 fluorescence intensity (a.u.). For “GTCTCCCGGTGAGGAGCCCCACGCTCCGTCAGACTCATACCGGAGTCACCTAGTGCAG”, the binding signal was 4410 fluorescence intensity (a.u.). “GTCAACAAGTATCTTGATTCTTGCCACGTTGTTTAGCATGCGGAGTCACCTAGTGCAG” was tested, and the binding signal was 3250 fluorescence intensity (a.u.). “CCACGCCACTCACCCAACCCCGCCGCCACCTCGGATCCGCCGGAGTCACCTAGTGCAG” was tested, and the binding signal was 6620 fluorescence intensity (a.u.). “GAGTGAGATAGGAATCGAGAGAGAGATGACATGGACCTTGCGGAGTCACCTAGTGCAG” was tested, and the binding signal was 7190 fluorescence intensity (a.u.). In the case of “GGAGGAGGAGGAGGAGGGAGATGGTGGCGAGCTGACTTGGCGGAGTCACCTAGTGCAG”, the binding signal is reported as 4090 fluorescence intensity (a.u.). In the case of “CACCTGGATCAGTGATGCCCTGAAGGCCGCCTCTTGCTTGCGGAGTCACCTAGTGCAG”, the binding signal is reported as 3540 fluorescence intensity (a.u.). With “TCCACCCCACGTCCTCCTCCTCCCCAGCAGTCCCACCCGCCGGAGTCACCTAGTGCAG” the binding signal was 3570 fluorescence intensity (a.u.). With “ACCGCCGCCGCCGTCGCCGGCCATCGTCACGGCGCCGCCCCGGAGTCACCTAGTGCAG” the binding signal was 3190 fluorescence intensity (a.u.). For “TGAGTCGTGTCCCATCCCACCTGCGCACCCAGCCCGGTAACGGAGTCACCTAGTGCAG”, the binding signal was 8140 fluorescence intensity (a.u.). For “CGCCAGCGGCCGGGAAACCCGCCGCGTGGACACAACGTCGCGGAGTCACCTAGTGCAG”, the binding signal was 4040 fluorescence intensity (a.u.). “GACGGCCTTGCACCTTATCACCACGTGTAGATACACCAAGCGGAGTCACCTAGTGCAG” was tested, and the binding signal was 4380 fluorescence intensity (a.u.). For “CTTTCACTACCTAGGACCAAATTGATGACTGAATTTCTCGCGGAGTCACCTAGTGCAG”, the binding signal was 3370 fluorescence intensity (a.u.). With “TGCGTTTCCCGTCAGCCCTGTCACGCCGCCGCCGGTCGCCCGGAGTCACCTAGTGCAG” the binding signal was 5130 fluorescence intensity (a.u.). With “GGGCCAAATTTTATCGAGAAGATTAGACACGAGTATGGGCCGGAGTCACCTAGTGCAG” the binding signal was 47600 fluorescence intensity (a.u.). In the case of “TATTTCACGCCAATCATTAATATATACCGTTGGGAGCACTCGGAGTCACCTAGTGCAG”, the binding signal is reported as 12600 fluorescence intensity (a.u.). With “ATGGGAAGAAGGGAGTACGGTACACGCAAGCAATGACACACGGAGTCACCTAGTGCAG” the binding signal was 6800 fluorescence intensity (a.u.).
